Experimental data: patent US20040043937A1 (priority 2000, published 2004)

Experiment: general procedure: peptide synthesis; HATU/collidine
Details: late stage modification step

Which step yield does the source give for Gua-Mab-azaGly-Asp-Hda-εAhx-εAhx-Aca here?
The step yield was 95%.
